Earlier results as cited in patent publication US7592468B2, “Production of Δ 9 tetrahydrocannabinol” (Resolution Chemicals Limited, priority 2003, dated 2009).
For at least one compound, name, drawing or mass did not settle the structure.

CCCCCc1cc2c(c(O)c1C(=O)O)[C@@H]1C=C(C)CC[C@H]1C(C)(C)O2 [THCA-A, Δ9-THC carboxylic acid]
psychomimetic activity (in words): psychomimetically inactive
